Laboratory results: patent US8389223B2, “Probes for anionic cell surface detection” (University of Notre Dame du Lac, priority 2006, dated 2013)
Some entries share one result that the patent states for a list of compounds. For at least one compound, name, drawing or mass did not settle the structure.

System: Jurkat cells
Test: Flow cytometry of Jurkat cells stained with PSS-480 and 7AAD
Format: cell-based, human
Details: control and treated cells, in each case

In the case of `Cc1c2oc3c(C)c(N)cc(C(=O)N[C@@H]4C(=O)N[C@H](C(C)C)C(=O)N5CCC[C@H]5C(=O)N(C)CC(=O)N(C)[C@@H](C(C)C)C(=O)O[C@@H]4C)c3nc-2c(C(=O)N[C@@H]2C(=O)N[C@H](C(C)C)C(=O)N3CCC[C@H]3C(=O)N(C)CC(=O)N(C)[C@@H](C(C)C)C(=O)O[C@@H]2C)c(N)c1=O` [7AAD, 7-amino-acitomycin-D], the “necrotic cells in the population (7AAD staining)” value is reported as “less than 5%”.
